Compound in the assay: c1cn2cc(-c3ccc4cn[nH]c4c3)nc(Nc3ccc(N4CCOCC4)cc3)c2n1 [entospletinib]
The experiment in a line: log2 fold change, soluble protein after heating vs DMSO (PISA); higher = thermal stabilisation; K562 cells, 10 uM, 30 min; active = over 0.2 and 3.5 SD of the protein, either way, in both replicates (recomputed). The method in brief: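 K562 cells at 2×10^6 cells/mL were treated with 10 μM compound for 30 min. Aliquots were heated for 3 min across 48°C-58°C, pooled, and extracted in PBS with 0.5% NP-40 at 4°C; soluble protein was the supernatant after 21,000xg for 90 min. Soluble protein was quantified by TMTpro 16plex LC-MS/MS with channel sums equalised, and reported as log2 fold change in thermal stability against DMSO controls, with values from duplicates.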

Protein sequences, listed by entry. Tags and fused reporters are not part of them. Lines headed by an entry give the natural chain unless they say otherwise; changes in a name come on top.
UniProt Q6IAA8, whole entry, looked up: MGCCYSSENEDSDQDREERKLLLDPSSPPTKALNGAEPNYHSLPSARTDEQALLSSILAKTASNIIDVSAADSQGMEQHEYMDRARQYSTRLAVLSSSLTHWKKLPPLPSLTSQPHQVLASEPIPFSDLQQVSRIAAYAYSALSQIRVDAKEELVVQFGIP
UniProt Q53H82: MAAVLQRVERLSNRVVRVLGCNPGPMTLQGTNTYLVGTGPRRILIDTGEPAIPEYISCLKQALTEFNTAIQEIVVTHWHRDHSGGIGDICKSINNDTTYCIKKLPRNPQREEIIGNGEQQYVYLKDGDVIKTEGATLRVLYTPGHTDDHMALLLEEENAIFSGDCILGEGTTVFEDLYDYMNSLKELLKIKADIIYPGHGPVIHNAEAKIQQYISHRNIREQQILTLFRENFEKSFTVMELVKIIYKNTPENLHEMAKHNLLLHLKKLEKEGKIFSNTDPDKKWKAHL
UniProt Q9H0V9: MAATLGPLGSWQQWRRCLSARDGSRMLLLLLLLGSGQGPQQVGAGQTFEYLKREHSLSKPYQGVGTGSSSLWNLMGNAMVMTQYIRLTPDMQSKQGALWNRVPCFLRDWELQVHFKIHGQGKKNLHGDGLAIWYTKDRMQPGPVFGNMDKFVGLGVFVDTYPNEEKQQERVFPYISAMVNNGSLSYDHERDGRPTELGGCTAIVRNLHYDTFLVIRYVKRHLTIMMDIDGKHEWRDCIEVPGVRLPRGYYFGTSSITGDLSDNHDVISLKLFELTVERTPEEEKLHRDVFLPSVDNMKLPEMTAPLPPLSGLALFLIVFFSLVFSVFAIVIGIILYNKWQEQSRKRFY
UniProt Q14657: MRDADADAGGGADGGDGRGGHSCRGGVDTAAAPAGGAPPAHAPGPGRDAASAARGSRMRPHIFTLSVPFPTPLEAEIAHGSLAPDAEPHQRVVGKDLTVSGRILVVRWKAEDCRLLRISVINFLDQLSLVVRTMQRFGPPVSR
UniProt Q6UWP7: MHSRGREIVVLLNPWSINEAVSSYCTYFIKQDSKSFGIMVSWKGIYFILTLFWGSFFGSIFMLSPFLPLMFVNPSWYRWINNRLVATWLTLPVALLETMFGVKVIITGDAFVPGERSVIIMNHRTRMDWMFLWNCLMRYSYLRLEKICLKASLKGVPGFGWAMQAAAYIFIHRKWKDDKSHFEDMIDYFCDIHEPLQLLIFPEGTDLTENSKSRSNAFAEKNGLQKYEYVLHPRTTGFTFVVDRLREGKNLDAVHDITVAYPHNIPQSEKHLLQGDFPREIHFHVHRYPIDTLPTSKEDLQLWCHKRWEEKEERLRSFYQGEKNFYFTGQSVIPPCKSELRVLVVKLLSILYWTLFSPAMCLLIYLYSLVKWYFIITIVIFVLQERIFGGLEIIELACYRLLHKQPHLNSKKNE
UniProt P48059, whole entry, looked up: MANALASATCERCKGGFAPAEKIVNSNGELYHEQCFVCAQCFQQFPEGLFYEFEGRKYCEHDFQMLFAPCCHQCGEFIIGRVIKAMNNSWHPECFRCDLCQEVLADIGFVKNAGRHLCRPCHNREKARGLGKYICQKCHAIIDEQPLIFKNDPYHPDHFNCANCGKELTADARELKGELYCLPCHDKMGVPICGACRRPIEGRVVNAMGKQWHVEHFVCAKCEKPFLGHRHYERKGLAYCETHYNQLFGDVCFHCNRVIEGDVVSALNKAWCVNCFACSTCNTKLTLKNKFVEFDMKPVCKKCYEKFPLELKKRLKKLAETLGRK
UniProt Q6P1Q0: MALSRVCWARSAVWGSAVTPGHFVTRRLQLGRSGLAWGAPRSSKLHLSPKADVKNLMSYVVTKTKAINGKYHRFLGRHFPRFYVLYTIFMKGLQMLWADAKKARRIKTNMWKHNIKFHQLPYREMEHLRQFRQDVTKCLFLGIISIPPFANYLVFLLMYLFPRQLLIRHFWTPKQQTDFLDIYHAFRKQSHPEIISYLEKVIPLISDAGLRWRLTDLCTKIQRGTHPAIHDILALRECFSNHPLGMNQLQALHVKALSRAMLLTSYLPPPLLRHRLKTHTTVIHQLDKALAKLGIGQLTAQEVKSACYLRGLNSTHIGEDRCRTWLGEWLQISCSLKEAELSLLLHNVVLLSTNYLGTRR
UniProt Q07954: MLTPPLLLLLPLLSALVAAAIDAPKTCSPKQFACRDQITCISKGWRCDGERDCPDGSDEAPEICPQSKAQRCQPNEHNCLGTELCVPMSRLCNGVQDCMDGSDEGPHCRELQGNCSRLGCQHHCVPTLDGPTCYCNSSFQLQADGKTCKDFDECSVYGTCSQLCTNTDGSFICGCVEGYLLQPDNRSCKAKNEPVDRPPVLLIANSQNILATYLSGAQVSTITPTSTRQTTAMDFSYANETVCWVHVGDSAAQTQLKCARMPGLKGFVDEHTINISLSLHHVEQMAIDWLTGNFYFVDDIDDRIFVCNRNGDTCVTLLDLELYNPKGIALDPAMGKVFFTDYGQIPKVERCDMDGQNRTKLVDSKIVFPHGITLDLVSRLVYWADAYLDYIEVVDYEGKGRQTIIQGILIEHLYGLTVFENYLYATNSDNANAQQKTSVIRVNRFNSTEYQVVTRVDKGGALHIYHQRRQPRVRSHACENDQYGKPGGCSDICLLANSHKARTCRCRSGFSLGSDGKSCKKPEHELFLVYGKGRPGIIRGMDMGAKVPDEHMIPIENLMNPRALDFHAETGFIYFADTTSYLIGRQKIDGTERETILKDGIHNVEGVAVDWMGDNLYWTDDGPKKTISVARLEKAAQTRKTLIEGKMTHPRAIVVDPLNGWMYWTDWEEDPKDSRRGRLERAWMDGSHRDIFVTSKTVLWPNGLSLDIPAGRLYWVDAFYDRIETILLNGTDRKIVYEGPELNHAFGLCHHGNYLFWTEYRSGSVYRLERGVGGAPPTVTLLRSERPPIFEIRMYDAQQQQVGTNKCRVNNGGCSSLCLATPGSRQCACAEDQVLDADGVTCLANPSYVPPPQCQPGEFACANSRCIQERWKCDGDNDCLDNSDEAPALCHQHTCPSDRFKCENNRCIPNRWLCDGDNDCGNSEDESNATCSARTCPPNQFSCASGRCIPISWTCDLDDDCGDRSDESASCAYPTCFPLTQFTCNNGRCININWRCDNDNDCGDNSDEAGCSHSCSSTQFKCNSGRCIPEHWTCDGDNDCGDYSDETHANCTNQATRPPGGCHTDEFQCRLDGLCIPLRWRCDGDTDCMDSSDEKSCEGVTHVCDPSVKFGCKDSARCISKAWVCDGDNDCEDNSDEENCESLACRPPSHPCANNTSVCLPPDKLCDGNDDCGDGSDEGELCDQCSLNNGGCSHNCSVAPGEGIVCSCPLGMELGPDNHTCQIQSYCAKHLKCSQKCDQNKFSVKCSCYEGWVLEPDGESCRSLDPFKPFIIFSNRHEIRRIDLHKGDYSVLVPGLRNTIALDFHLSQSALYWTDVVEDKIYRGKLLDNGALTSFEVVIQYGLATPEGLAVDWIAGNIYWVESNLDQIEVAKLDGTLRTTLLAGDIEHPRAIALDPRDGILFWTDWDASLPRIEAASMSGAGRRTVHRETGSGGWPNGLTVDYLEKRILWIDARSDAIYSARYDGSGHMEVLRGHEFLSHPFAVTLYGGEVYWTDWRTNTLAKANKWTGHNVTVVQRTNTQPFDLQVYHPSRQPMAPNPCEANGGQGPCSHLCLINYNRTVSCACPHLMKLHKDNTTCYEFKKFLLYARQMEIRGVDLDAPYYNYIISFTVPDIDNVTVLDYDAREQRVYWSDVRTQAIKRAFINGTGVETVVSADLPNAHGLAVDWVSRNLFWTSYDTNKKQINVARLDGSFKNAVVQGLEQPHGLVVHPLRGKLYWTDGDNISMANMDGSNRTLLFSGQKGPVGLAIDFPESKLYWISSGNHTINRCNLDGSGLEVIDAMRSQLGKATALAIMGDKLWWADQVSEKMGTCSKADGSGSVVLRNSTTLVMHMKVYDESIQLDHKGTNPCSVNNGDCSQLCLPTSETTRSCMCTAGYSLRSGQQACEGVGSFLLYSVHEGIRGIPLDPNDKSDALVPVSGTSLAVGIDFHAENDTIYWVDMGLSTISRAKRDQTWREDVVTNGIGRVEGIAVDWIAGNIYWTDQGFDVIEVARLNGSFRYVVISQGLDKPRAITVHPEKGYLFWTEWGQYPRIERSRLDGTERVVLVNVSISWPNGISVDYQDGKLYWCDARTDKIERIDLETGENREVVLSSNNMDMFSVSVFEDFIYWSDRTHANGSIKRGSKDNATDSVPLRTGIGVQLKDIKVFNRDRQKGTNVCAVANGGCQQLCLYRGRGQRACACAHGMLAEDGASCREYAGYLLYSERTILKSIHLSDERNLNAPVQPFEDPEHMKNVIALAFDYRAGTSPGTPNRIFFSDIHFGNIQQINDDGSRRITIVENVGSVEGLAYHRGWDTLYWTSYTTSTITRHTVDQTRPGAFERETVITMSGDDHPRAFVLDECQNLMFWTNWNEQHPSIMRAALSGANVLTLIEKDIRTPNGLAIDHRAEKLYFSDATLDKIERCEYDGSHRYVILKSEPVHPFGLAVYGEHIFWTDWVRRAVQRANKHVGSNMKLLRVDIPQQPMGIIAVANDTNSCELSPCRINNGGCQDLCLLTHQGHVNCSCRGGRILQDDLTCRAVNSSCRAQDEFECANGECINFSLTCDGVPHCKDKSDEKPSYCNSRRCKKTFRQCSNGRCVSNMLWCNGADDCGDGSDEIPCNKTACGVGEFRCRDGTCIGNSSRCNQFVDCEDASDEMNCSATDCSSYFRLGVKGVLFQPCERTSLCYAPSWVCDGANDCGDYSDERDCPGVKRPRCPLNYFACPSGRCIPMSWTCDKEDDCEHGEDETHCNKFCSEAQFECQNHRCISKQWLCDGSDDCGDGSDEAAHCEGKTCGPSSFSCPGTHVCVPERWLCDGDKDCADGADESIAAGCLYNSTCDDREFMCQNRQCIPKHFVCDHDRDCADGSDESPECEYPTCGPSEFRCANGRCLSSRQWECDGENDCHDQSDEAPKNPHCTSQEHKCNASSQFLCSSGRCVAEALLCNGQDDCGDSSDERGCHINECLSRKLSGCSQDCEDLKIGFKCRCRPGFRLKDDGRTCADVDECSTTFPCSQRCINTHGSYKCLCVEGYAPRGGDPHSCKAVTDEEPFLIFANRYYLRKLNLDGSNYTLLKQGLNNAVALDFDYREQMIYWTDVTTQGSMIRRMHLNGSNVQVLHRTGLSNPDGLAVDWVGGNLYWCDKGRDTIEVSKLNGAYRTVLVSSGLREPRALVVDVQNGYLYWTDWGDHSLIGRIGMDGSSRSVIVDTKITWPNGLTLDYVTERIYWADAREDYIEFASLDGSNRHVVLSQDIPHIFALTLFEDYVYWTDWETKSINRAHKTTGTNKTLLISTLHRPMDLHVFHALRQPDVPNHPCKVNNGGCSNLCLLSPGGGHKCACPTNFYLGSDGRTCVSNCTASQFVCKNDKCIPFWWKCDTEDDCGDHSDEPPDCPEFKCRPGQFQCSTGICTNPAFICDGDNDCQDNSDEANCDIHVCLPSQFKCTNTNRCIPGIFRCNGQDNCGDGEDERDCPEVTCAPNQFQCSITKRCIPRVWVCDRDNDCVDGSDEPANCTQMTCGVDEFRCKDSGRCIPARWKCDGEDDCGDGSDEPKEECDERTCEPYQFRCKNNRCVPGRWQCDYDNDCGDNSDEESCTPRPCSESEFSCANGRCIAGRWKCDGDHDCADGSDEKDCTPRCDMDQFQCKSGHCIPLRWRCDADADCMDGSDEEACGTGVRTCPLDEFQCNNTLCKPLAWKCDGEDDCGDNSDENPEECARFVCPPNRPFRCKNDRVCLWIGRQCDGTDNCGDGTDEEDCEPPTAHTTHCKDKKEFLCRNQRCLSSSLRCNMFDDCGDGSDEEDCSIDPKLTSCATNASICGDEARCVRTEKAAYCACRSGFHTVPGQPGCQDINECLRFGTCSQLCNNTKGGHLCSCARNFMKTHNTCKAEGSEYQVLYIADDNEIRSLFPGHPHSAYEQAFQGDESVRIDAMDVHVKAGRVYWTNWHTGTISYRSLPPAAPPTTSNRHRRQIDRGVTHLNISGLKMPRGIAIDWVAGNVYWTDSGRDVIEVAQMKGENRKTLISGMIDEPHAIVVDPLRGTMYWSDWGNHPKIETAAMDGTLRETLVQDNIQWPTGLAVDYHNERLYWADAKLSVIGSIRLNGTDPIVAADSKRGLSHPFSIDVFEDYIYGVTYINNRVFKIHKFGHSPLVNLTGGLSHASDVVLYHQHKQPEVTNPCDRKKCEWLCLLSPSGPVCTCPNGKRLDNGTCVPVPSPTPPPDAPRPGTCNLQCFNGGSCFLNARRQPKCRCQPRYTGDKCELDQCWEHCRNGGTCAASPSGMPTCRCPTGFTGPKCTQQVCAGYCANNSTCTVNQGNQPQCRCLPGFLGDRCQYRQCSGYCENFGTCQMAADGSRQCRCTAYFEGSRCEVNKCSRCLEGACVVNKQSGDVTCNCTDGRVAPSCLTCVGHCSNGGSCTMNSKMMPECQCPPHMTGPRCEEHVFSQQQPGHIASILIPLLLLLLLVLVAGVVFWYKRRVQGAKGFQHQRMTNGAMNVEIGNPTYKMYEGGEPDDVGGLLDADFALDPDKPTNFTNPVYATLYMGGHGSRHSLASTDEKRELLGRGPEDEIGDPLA

The other results are listed elsewhere or left out.

The values below come from the supplement of paper PMC10849652.

For LASP1 (UniProt Q14847), the log2 fold change is inactive: -0.018.

With LAMTOR1 (UniProt Q6IAA8), the log2 fold change was inactive: -0.06.

Consider LRRC47 (UniProt Q8N1G4), for which the log2 fold change was inactive: 0.015.

As for LAMTOR2 (UniProt Q9Y2Q5), the log2 fold change is inactive: 0.071.

As for LRRC59 (UniProt Q96AG4), the log2 fold change was inactive: 0.001.

Turning to LRRC14 (UniProt Q15048), the log2 fold change was inactive: 0.028.

On to LMO4 (UniProt P61968), for which the log2 fold change was inactive: -0.057.

Consider LACTB2 (UniProt Q53H82), for which the log2 fold change is inactive: -0.004.

As to LAMP1 (UniProt P11279), the log2 fold change was inactive: 0.005.

Regarding LAMTOR5 (UniProt O43504), the log2 fold change is inactive: -0.032.

On to LDHB (UniProt P07195), for which the log2 fold change was inactive: 0.027.

LEPR (UniProt P48357): the log2 fold change was inactive: 0.042.

For LACRT (UniProt Q9GZZ8), the log2 fold change was inactive: 0.14.

Consider LARP1B, A0A3B3ISF0, for which the log2 fold change is inactive: 0.088.

As for LDB1 (UniProt Q86U70), the log2 fold change is inactive: -0.026.

For LPL (UniProt P06858), the log2 fold change is inactive: 0.202.

Consider LMAN2L isoform 2 (UniProt Q9H0V9), for which the log2 fold change is inactive: 0.017.

In the case of LRCH4 (UniProt O75427), the log2 fold change was inactive: 0.507.

For the target LAGE3 (UniProt Q14657), the log2 fold change was inactive: -0.01.

Turning to LCLAT1 (UniProt Q6UWP7), the log2 fold change is inactive: -0.122.

As to LPCAT1 (UniProt Q8NF37), the log2 fold change was inactive: 0.02.

With LIMS1 isoform 3 (UniProt P48059), the log2 fold change was inactive: -0.025.

In the case of LRPAP1 (UniProt P30533), the log2 fold change was inactive: -0.005.

Turning to LOR (UniProt P23490), the log2 fold change was inactive: -0.313.

As to LHPP (UniProt Q9H008), the log2 fold change is inactive: -0.109.

For LETMD1 isoform 7 (UniProt Q6P1Q0), the log2 fold change was inactive: -0.054.

With LARS (UniProt Q9P2J5), the log2 fold change was inactive: 0.113.

On to LIN7C (UniProt Q9NUP9), for which the log2 fold change was inactive: 0.024.

Consider LRG1 (UniProt P02750), for which the log2 fold change is inactive: 0.

Take LANCL2 (UniProt Q9NS86): the log2 fold change is inactive: -0.054.

With LINC00526 (UniProt Q96FQ7), the log2 fold change is inactive: 0.01.

With LETM1 (UniProt O95202), the log2 fold change was inactive: -0.04.

In the case of LENG1 (UniProt Q96BZ8), the log2 fold change is inactive: 0.03.

Take LCMT1 (UniProt Q9UIC8): the log2 fold change is inactive: -0.036.

As for LAMTOR3 (UniProt Q9UHA4), the log2 fold change is inactive: -0.014.

For LRP8 (UniProt E9PP15), the log2 fold change was inactive: 0.086.

Take LMAN2 (UniProt Q12907): the log2 fold change was inactive: 0.005.

As for LRP1 (UniProt Q07954), the log2 fold change is inactive: -0.136.

Consider LMO2 isoform 3 (UniProt P25791), for which the log2 fold change was inactive: 0.016.

With LRRC40 (UniProt Q9H9A6), the log2 fold change is inactive: 0.054.
